Data taken from paper PMC3762332.
The exact form of at least one protein or probe is not confirmed. For some assays here: Tags and fusion partners may be left off the protein sequences shown.

The chains behind the UniProt entries cited, without tags or fusion partners. Where a name states a change or a piece, a line headed by the entry shows the natural chain unless it says otherwise.
UniProt O00716: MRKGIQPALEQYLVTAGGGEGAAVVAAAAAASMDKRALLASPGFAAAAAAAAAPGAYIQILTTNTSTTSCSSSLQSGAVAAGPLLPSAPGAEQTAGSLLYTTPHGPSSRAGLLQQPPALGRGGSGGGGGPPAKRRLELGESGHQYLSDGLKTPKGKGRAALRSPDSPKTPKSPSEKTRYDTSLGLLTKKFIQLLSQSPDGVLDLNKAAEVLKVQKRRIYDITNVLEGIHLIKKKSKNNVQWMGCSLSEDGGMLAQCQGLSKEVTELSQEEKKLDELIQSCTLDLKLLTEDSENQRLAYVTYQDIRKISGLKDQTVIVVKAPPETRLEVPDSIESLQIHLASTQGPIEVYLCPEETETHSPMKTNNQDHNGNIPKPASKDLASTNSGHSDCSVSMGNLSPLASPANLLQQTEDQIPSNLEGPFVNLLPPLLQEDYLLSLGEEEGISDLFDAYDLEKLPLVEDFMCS
UniProt P43694: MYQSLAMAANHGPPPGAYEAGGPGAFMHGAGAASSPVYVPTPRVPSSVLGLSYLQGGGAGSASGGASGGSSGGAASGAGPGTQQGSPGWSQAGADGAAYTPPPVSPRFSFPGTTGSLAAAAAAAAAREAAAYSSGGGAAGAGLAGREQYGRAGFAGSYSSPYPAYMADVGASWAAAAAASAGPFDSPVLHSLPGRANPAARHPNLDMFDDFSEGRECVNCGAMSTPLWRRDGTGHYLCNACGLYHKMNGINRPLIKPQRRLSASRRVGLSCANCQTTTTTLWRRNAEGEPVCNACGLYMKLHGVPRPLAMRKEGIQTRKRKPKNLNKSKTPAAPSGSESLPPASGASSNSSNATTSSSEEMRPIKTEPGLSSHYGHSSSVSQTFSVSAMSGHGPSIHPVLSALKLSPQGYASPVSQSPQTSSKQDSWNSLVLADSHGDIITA
UniProt P20719: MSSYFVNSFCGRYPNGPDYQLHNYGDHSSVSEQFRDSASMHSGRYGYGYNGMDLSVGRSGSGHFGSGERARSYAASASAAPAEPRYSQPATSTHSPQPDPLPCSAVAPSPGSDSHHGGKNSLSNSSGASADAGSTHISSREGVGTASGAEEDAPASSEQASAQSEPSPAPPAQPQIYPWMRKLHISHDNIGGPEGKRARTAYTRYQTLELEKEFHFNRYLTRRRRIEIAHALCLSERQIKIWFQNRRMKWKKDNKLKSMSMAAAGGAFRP
UniProt P19793: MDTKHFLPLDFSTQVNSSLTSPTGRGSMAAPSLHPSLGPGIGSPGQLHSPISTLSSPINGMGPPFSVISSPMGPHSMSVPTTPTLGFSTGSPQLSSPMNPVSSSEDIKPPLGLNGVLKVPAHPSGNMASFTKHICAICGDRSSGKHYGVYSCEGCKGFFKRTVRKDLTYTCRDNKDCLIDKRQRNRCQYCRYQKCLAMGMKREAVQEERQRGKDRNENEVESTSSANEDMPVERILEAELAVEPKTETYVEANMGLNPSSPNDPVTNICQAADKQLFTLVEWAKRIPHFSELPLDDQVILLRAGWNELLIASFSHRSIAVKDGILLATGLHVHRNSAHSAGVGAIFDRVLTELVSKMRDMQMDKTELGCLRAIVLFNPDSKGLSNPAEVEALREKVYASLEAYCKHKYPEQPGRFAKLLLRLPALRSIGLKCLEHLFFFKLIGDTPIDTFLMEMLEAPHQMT
UniProt Q8NC26: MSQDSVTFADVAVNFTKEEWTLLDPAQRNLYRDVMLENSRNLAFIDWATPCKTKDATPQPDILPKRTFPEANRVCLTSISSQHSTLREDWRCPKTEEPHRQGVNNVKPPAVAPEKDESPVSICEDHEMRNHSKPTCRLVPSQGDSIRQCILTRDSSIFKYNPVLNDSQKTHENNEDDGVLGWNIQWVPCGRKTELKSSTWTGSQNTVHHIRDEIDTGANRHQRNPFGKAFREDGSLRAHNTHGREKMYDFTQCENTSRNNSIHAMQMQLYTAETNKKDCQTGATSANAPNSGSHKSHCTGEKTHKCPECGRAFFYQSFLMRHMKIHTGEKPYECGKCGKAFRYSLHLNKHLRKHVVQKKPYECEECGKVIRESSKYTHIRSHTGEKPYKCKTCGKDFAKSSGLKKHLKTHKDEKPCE
UniProt Q9BWM5: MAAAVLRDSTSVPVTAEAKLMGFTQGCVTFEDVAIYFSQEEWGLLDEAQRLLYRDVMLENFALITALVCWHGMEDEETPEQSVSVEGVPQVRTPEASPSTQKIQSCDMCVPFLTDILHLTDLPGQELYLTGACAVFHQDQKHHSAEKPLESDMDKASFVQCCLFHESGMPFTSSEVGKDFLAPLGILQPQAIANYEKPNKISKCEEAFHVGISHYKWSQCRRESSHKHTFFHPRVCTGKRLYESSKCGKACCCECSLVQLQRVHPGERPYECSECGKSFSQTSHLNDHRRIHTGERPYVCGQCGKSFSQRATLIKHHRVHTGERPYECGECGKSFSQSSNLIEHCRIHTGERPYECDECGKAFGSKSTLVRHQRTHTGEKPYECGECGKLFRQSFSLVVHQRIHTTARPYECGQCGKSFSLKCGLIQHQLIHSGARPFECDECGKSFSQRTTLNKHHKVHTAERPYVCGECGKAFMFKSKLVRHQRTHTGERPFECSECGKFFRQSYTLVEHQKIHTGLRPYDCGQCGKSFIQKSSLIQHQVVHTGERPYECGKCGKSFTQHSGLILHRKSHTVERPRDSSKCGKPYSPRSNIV

Tests used:
Test in all cases: protein microarray
Details in all cases: 10-fold cold unmethylated competitor; 5mC at CpG (SssI, both strands); recombinant protein; protein details: GST (N-terminal); label: Cy5
[1] = molecular target: E2F3 (Homo sapiens) (UniProt O00716)
[2] = molecular target: GATA4 (Homo sapiens) (UniProt P43694)
[3] = molecular target: HOXA5 (Homo sapiens) (UniProt P20719)
[4] = molecular target: T1, RNF138 (Homo sapiens) (UniProt Q8WVD3)
T1 sequence (looked up, limits assumed): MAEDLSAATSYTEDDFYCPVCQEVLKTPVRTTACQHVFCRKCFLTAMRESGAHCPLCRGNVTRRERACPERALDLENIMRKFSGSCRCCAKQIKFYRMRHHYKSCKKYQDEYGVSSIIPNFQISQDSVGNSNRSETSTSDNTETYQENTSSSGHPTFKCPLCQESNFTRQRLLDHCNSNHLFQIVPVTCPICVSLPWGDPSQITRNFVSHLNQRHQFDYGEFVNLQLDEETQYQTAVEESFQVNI

[5] = molecular target: RXRA (Homo sapiens) (UniProt P19793)
[6] = molecular target: T2, SCAPER (Homo sapiens) (UniProt Q9BY12)
T2 sequence (looked up, limits assumed): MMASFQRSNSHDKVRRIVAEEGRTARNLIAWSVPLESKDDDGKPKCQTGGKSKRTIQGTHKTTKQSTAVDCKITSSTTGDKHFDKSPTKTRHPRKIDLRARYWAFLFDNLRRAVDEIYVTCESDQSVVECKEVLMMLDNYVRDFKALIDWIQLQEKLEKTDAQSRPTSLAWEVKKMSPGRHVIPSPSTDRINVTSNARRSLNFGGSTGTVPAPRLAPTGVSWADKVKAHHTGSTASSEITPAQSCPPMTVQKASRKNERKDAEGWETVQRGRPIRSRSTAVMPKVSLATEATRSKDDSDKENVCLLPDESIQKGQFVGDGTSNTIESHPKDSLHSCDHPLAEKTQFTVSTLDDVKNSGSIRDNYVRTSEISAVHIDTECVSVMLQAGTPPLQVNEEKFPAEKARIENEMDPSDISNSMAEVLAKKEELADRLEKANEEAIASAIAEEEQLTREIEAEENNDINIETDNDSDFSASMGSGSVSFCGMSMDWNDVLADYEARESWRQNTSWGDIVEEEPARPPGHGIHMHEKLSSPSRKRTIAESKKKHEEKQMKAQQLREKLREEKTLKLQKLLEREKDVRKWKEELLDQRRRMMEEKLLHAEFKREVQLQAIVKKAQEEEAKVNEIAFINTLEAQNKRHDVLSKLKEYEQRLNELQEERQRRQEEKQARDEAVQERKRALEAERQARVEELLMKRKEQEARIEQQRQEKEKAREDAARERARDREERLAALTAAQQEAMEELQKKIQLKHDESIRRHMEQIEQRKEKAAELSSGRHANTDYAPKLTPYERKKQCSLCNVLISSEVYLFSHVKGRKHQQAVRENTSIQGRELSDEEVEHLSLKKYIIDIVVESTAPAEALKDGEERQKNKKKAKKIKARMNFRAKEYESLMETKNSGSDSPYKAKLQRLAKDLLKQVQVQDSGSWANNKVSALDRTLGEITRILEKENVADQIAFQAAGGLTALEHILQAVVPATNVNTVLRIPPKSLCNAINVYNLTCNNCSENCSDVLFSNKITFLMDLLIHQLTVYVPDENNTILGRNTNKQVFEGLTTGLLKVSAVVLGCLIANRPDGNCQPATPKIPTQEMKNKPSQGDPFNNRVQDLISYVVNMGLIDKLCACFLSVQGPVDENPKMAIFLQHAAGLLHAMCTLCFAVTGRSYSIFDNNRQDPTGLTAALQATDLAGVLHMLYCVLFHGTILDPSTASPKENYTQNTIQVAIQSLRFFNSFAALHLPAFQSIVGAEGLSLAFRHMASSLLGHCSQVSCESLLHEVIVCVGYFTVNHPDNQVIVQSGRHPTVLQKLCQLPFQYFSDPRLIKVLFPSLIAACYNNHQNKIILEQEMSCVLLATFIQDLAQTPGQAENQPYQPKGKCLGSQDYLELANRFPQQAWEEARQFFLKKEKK

[7] = molecular target: T3, SMAD4 (Homo sapiens) (UniProt Q13485)
T3 sequence (looked up, limits assumed): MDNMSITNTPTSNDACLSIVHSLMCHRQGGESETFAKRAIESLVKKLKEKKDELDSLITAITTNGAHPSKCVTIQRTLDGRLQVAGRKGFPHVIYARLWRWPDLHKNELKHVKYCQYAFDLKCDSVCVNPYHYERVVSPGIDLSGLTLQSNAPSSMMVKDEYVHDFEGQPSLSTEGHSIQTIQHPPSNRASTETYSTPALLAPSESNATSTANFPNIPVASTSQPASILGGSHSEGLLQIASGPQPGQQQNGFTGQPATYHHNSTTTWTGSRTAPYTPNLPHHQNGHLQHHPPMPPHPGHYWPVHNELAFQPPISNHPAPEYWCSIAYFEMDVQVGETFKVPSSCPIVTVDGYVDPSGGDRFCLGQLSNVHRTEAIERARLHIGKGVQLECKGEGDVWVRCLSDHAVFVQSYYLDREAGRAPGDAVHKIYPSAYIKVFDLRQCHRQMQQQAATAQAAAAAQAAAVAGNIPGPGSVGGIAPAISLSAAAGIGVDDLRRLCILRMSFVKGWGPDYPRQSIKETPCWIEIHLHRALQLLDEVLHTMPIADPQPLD

[8] = molecular target: T4, ZCCHC7 (Homo sapiens) (UniProt Q8N3Z6)
T4 sequence (looked up, limits assumed): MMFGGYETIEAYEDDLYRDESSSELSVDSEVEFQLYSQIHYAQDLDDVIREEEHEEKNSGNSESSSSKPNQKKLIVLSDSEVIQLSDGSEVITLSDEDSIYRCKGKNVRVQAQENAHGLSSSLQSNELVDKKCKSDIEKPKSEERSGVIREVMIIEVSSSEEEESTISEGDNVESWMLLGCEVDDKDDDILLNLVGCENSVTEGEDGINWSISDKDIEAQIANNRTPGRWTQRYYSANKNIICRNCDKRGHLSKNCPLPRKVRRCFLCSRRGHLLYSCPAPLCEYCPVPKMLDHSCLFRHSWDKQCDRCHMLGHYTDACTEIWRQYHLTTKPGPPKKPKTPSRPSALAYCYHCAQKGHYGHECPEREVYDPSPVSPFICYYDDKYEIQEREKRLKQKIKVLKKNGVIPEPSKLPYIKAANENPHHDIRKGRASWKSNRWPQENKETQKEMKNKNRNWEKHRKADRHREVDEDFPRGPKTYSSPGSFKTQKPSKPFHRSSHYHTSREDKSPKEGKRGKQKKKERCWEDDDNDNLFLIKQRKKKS

[9] = molecular target: ZNF114 (Homo sapiens) (UniProt Q8NC26)
[10] = molecular target: ZNF416 (Homo sapiens) (UniProt Q9BWM5)

Measured: binding result

CTGCCGCAAACTGCCGCCCCTATAGTGAGTGCTATTA (double strand) [M95]
binds: all assays above

CGGATGTAAACGGATGTCCCTATAGTGAGTGCTATTA (double strand) [M27]
binds: all assays above

CATCCGGGAAACATCCGGGCCCTATAGTGAGTGCTATTA (double strand) [M322]
not listed: [4]
binds: all other assays above

AGGCCGCTTTAGGCCGCCCCTATAGTGAGTGCTATTA (double strand) [M304]
binds: all assays above

CCGGAGCAAACCGGAGCCCCTATAGTGAGTGCTATTA (double strand) [M301]
binds: all assays above

ACGTGGGTTTACGTGGGCCCTATAGTGAGTGCTATTA (double strand) [M327]
binds: all assays above

GTCACGCCCAAAGTCACGCCCCCCTATAGTGAGTGCTATTA (double strand) [M213]
not listed: [7]
binds: all other assays above

TGTTCCGATTTTGTTCCGACCCTATAGTGAGTGCTATTA (double strand) [M447]
binds: all assays above

CCGGAACTTTCCGGAACCCCTATAGTGAGTGCTATTA (double strand) [M318]
binds: all assays above

ACGTCAGAAAACGTCAGCCCTATAGTGAGTGCTATTA (double strand) [M303]
binds: all assays above
